From patent publication US12305171B2, “Compositions and methods for treating cancer” (bioAffinity Technologies, Inc., priority 2018, dated 2025) come the findings set out here.

What all share (test): doxorubicin cell viability, CTG assay
Holding throughout (assay type): cell-based

For one test, the system named is MCF7. The following applies: Homo sapiens, 96 h; MCF7, Breast; CTG 4 days after treatment. As for the experimental part:
(§1) A172 and HCC15 cells were plated at 1200 cells/well in a 96 well plate. The next day, cells were treated with doxorubicin at the indicated concentrations. Four days after the doxorubicin exposure was initiated, the cells were assayed for viability using the CTG assay. […] After incubating the cells with the CTG reagent, ATP levels can be indirectly measured as light production using the TECAN luminescence plate reader. As a first step, toxicity of a known chemotherapeutic drug, doxorubicin, was assayed on the cell lines of interest. Doxorubicin was used as a positive control for cell toxicity in our assay.
(§2) The cells lines were plated at 1,000 to 4,000 cells/well in a 96-well plate and treated with doxorubicin the following day. CTG activity was measured 4 days after treatment. IC50 values were calculated by GraphPad Prism Software.

The next test deals with MDA-MB-231. As to conditions: Homo sapiens, 96 h; MDA-MB-231, Breast; CTG 4 days after treatment. Here is the method:
as §1, §2

The next test relates to A549. The following applies: Homo sapiens, 96 h; A549, Lung; CTG 4 days after treatment. As for the experimental part: as §1, §2

pIC50: −log10 of the molar value.

For the compound `COc1cccc2c1C(=O)c1c(O)c3c(c(O)c1C2=O)C[C@@](O)(C(=O)CO)C[C@@H]3O[C@H]1C[C@H](N)[C@H](O)[C@H](C)O1` [doxorubicin], the pIC50 is 6.92 with MCF7, 7.37 in the test with MDA-MB-231 and 6.90 in the test with A549.

What is called pIC50 is the negative decadic logarithm of the IC50, by convention in mol/L. Read a high pIC50 as a small IC50.
